Reference: the supplement of paper PMC8846439
This is one part of the list. Many values rest on one well or one pass, so single values are uncertain.

System: Trypanosoma brucei brucei bloodstream form L262P (kDNA-independent)
Test: viability Z-score (nuclei count per well, median-polish normalised, relative to plate distribution); higher = more viable parasites (negative = growth inhibition)
Conditions: 4 days; compound concentration: 10 µM (some Prestwick/PKE rows may be 1 µM / not distinguished)

Compound | viability Z-score
CN1CCc2cccc3c2[C@H]1Cc1ccc(O)c(O)c1-3.CN1CCc2cccc3c2[C@H]1Cc1ccc(O)c(O)c1-3 [R(-) Apomorphine hydrochloride hemihydrate] | -1.86
N=C(NC(=O)C=1C=CC=CC=1)NCC/C2=C/NC=3C=CC=CC2=3 | -4.62
N/1(C(NC(/C(=C1)/F)=O)=O)C(=O)NCCCCCC [Carmofur] | -3.13
N#CC(NC/C1=C(\[Cl])C=C/C=C1/[F])=C(C#N)NCC=2[S]C=CC=2 | -1.65
CC(C)c1cccc2c1O[C@H](C(C)C)C(=S)N2CC(=O)O | -2.1
